Measurements reported in PubChem BioAssay AID1508597 (Cure First, 2020).
Assay: 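Survival screen with siRNA in ovarian cancer cells derived from patients, with or without rucaparib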 (primary screen). Cells: human ovarian carcinoma lines grown from tumours: OCI-P5x (papillary serous) and OCI-C5x (clear cell). Reagent: siRNA pool against human genes, 1.25 pmol siRNA per well. Timing: 72 h or 96 h, depending on the cell culture. Conditions: rucaparib 20 µM (about IC30) or vehicle, present until read-out. Rucaparib or vehicle: Vehicle. Cell line: OCI-C5x (clear cell). Measured: 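Luminescent ATP-based viability assay read 72 or 96 h after transfection, depending on culture, given as normalised percent viability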. Reading the numbers: viability, normalised: higher = more viable cells remaining. Active means: 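a well counts as a hit if its normalised viability is under 80 percent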. Meaning of the calls: active = viability under 80%; inactive = viability 80% or more.
This is an unselected part of the about 2,100 reagents, under one of the conditions tested. 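Calls flag viability under 80% in either arm, not effects specific to rucaparib; the reference for percent is not stated.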 Unmarked entries are inactive. Not given: the 100% reference.

The opening 7 entries as a preview:
gene	technical replicate	viability, normalised (%)
DHX35	1	38.3 (active)
DHX35	2	38.3 (active)
DHX35	3	41.2 (active)
BMP2	1	27.4 (active)
BMP2	2	39.2 (active)
BMP2	3	32.9 (active)
FMN2	1	38.7 (active)

The listing, from the start:
gene	technical replicate	viability, normalised (%)
DHX35	1	38.3 (active)
DHX35	2	38.3 (active)
DHX35	3	41.2 (active)
BMP2	1	27.4 (active)
BMP2	2	39.2 (active)
BMP2	3	32.9 (active)
FMN2	1	38.7 (active)
FMN2	2	57.6 (active)
FMN2	3	39.9 (active)
EDC4	1	61.3 (active)
EDC4	2	74.5 (active)
EDC4	3	54.4 (active)
PIM3	1	30.8 (active)
PIM3	2	53.3 (active)
PIM3	3	34.3 (active)
SAFB	1	42 (active)
SAFB	2	45.9 (active)
SAFB	3	53.5 (active)
CSNK1G1	1	56.8 (active)
CSNK1G1	2	42.9 (active)
CSNK1G1	3	35 (active)
CDK3	1	64 (active)
CDK3	2	60.3 (active)
CDK3	3	57.1 (active)
GDE1	1	39.3 (active)
GDE1	2	41.1 (active)
GDE1	3	40 (active)
TSSK6	1	59.9 (active)
TSSK6	2	57.9 (active)
TSSK6	3	52.3 (active)
PPM1D	1	72.8 (active)
PPM1D	2	79.5 (active)
PPM1D	3	65.2 (active)
BCL3	1	57 (active)
BCL3	2	46.8 (active)
BCL3	3	50.6 (active)
STK24	1	55.2 (active)
STK24	2	70.1 (active)
STK24	3	50.2 (active)
PNCK	1	62.1 (active)
PNCK	2	63 (active)
PNCK	3	46.7 (active)
CAMK1D	1	64.3 (active)
CAMK1D	2	51.3 (active)
CAMK1D	3	54.4 (active)
PRKN	1	42.1 (active)
PRKN	2	31.6 (active)
PRKN	3	46.7 (active)
NEK4	1	46 (active)
NEK4	2	48.4 (active)
NEK4	3	52.4 (active)
PEA15	1	36.9 (active)
PEA15	2	45.2 (active)
PEA15	3	39.8 (active)
TRIB3	1	55 (active)
TRIB3	2	41.7 (active)
TRIB3	3	48.5 (active)
